Experiment [1] deals with aryl hydrocarbon receptor (AhR) (mouse (endogenous in MEFs)) (UniProt P30561). The experiment is described as follows: co-IP; endogenous proteins; cell lysates (300 ug) from cytosolic and nuclear fractions of WT and Jdp2-/- MEFs; immunoprecipitated with anti-AhR or (WT MEFs) anti-Jdp2 antibodies on protein A/G beads; western blot; IgG as negative control. (In general: In western blotting, separated proteins are transferred to a membrane and probed.)

Amino acid sequences for entries named in this document (tags omitted). Residues count along the entry.
UniProt P30561, residues 10-848: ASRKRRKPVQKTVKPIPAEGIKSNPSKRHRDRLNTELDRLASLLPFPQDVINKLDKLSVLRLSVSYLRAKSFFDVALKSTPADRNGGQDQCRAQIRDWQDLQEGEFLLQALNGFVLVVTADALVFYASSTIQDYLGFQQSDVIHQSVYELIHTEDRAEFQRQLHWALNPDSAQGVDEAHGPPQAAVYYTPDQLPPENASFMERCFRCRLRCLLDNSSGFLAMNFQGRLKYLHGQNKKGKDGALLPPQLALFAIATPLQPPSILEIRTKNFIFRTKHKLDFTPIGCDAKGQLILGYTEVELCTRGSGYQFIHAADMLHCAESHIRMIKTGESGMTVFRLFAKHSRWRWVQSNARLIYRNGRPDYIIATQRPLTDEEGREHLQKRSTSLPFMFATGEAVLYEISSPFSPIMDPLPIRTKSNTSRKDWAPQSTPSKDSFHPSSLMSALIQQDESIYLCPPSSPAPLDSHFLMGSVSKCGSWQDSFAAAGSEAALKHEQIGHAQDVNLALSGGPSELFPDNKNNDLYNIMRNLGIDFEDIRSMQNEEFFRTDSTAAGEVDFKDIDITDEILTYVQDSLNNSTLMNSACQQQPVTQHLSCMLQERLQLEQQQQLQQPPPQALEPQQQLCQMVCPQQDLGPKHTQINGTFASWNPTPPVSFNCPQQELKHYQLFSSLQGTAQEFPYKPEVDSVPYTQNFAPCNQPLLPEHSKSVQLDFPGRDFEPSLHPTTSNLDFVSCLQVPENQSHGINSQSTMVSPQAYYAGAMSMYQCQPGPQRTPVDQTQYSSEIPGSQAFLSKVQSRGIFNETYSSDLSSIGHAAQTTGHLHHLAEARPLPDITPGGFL
UniProt P53762: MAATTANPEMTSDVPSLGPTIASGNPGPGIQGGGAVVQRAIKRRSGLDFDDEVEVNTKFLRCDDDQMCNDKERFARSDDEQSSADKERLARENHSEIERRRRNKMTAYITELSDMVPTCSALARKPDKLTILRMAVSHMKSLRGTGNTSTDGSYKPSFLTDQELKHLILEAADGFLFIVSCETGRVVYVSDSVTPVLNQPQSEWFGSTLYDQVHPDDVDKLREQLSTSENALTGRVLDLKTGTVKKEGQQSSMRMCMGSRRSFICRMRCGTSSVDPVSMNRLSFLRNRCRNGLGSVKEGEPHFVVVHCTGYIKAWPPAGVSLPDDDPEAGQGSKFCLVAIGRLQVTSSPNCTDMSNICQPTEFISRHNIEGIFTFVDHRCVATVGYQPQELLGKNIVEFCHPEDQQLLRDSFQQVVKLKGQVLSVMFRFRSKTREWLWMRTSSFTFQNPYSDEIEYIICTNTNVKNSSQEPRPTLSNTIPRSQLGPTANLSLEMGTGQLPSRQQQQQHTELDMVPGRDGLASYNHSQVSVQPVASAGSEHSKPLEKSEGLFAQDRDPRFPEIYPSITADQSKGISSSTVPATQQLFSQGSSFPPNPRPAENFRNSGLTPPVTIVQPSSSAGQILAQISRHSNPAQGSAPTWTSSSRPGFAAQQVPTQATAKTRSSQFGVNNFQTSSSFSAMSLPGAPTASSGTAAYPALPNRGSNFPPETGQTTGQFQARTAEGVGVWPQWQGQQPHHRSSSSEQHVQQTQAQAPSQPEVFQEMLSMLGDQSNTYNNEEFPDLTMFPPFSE

The target in experiment [2] is T1, Jun dimerization protein 2 (Jdp2) (mouse (endogenous in MEFs)) (UniProt P97875).
T1 sequence: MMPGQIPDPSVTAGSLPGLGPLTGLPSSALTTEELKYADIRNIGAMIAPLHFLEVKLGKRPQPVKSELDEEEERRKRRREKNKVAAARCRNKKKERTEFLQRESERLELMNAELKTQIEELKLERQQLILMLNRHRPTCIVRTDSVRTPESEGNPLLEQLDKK
The description is as above.

Results are given in words; binding and its absence hold for the method and conditions named. Binding seen in cells or lysates may run through a third protein. Some results given as binding are weak or reduced against the parent protein; the word gives no strength.

Turning to “AhR nuclear translocator (Arnt) (from UniProt P53762 1-791)”, the binding result in experiment [1] is recorded as “binds”. As to “aryl hydrocarbon receptor (AhR) (from UniProt P30561 10-848)”, the binding entry in experiment [2] was “binds”.

B1: nuclear factor (erythroid-derived 2)-like 2 (Nrf2) (protein, UniProt Q60795 1-597)
chain: MMDLELPPPGLQSQQDMDLIDILWRQDIDLGVSREVFDFSQRQKDYELEKQKKLEKERQEQLQKEQEKAFFAQFQLDEETGEFLPIQPAQHIQTDTSGSASYSQVAHIPKQDALYFEDCMQLLAETFPFVDDHESLALDIPSHAESSVFTAPHQAQSLNSSLEAAMTDLSSIEQDMEQVWQELFSIPELQCLNTENKQLADTTAVPSPEATLTEMDSNYHFYSSISSLEKEVGNCGPHFLHGFEDSFSSILSTDDASQLTSLDSNPTLNTDFGDEFYSAFIAEPSDGGSMPSSAAISQSLSELLDGTIEGCDLSLCKAFNPKHAEGTMEFNDSDSGISLNTSPSRASPEHSVESSIYGDPPPGFSDSEMEELDSAPGSVKQNGPKAQPAHSPGDTVQPLSPAQGHSAPMRESQCENTTKKEVPVSPGHQKAPFTKDKHSSRLEAHLTRDELRAKALHIPFPVEKIINLPVDDFNEMMSKEQFNEAQLALIRDIRRRGKNKVAAQNCRKRKLENIVELEQDLGHLKDEREKLLREKGENDRNLHLLKRRLSTLYLEVFSMLRDEDGKPYSPSEYSLQQTRDGNVFLVPKSKKPDTKKN
Turning to B1, the binding result in experiment [2] and in experiment [1] was “binds” throughout.

The values are drawn from article PMC8986748.
